From paper doi:10.1101/772400 come the findings set out here.

Chains of the proteins cited; added tags and fusions are not shown.
UniProt Q9FY60: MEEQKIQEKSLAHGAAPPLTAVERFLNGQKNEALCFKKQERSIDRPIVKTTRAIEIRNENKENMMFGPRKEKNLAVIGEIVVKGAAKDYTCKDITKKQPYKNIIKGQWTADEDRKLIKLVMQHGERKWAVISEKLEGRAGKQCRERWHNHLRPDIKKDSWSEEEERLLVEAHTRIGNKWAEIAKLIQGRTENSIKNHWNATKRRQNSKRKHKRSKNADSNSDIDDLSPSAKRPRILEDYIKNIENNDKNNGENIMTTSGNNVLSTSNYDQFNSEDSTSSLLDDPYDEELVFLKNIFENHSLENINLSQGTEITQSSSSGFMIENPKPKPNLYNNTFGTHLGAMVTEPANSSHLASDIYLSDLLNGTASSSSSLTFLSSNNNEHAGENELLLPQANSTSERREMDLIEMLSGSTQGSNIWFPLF
UniProt Q9CA66: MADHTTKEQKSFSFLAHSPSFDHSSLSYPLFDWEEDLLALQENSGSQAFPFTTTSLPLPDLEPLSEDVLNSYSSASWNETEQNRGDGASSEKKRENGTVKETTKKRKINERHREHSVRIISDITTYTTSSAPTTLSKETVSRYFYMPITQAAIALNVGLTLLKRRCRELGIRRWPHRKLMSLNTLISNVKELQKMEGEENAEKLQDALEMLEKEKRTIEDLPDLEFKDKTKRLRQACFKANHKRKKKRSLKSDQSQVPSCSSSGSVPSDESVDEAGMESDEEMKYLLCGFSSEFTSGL
UniProt Q9FIM4: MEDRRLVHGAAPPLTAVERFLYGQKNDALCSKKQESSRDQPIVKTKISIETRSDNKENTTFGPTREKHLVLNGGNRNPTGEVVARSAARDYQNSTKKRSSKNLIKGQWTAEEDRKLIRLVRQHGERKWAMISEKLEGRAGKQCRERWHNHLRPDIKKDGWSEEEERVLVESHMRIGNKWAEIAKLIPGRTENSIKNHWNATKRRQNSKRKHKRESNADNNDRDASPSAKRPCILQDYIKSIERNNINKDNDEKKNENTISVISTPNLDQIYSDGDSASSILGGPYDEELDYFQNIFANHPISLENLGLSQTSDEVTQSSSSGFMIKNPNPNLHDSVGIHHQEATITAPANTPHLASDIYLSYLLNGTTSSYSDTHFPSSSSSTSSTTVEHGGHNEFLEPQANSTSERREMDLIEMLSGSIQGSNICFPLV
UniProt Q9M9U9: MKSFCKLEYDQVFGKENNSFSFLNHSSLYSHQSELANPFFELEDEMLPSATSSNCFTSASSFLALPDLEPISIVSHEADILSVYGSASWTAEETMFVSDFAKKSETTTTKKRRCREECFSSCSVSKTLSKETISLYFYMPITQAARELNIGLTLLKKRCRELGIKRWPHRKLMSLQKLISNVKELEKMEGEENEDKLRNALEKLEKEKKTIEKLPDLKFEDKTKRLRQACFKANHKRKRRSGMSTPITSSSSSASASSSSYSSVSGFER
UniProt Q9FGD1: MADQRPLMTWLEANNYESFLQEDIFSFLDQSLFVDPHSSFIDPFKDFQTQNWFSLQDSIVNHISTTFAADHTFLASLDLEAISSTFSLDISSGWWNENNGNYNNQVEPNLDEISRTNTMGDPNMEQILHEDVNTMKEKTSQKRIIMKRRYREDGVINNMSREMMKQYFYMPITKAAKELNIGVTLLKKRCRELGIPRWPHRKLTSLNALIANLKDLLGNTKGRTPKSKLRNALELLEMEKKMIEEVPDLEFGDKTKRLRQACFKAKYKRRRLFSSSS
UniProt O22467: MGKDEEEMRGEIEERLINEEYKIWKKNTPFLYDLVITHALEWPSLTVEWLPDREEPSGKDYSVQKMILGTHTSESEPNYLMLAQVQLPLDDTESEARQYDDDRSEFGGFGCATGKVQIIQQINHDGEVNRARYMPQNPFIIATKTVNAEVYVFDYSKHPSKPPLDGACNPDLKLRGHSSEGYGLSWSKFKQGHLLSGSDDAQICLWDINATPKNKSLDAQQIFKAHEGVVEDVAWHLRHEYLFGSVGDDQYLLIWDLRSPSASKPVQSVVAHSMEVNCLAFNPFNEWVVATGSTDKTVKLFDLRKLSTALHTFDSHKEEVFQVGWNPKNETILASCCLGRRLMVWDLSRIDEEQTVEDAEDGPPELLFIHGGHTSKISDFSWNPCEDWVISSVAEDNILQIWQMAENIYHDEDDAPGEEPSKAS

No constants are given. Whether binding was seen depends on the method and setting. For part of these data: Binding seen in cells or lysates may run through a third protein. Some entries that bind do so weakly or less than the wild type. For part of these data: Tags and fused reporters may be left off the sequences shown.

The target of the first assay is T1, C-Ven-RBR (RETINOBLASTOMA RELATED fused to C-Venus for BiFC) (Arabidopsis (accession Col-0)) (UniProt Q9LKZ3).
T1 sequence: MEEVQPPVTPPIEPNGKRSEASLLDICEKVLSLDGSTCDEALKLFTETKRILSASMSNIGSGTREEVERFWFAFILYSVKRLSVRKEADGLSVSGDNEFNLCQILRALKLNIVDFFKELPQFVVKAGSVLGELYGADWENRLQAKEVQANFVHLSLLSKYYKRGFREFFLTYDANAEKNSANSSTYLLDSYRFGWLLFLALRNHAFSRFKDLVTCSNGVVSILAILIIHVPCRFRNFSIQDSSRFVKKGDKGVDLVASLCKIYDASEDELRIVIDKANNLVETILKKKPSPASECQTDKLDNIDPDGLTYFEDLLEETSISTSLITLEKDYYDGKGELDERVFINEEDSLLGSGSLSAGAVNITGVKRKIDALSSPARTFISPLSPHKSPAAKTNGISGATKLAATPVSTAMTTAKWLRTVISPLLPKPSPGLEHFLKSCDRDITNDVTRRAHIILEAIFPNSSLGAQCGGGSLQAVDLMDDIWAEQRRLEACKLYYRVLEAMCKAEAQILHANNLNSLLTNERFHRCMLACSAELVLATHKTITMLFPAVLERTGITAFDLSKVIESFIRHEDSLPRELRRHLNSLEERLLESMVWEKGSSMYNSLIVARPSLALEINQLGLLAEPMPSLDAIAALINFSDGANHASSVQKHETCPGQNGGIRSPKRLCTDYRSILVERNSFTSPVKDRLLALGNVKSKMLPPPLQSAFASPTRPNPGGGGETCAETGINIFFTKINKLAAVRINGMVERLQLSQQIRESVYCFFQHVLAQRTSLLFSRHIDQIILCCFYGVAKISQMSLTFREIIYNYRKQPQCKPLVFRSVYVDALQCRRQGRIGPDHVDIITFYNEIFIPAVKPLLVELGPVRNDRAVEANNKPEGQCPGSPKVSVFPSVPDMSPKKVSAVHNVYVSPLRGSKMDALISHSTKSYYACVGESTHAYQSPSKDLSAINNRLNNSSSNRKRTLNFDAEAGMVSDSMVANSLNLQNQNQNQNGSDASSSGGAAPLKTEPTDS
The assay can be described thus: split reporter.
Consider “N-Ven-MYB64 (BiFC fusion) (from UniProt Q9FY60 1-423)”, for which the binding entry is reported as “binds”.
Regarding “N-Ven-RKD2 (BiFC fusion) (from UniProt Q9CA66 1-298)”, the binding result was “binds”.
Turning to “N-Ven-MYB119 (BiFC fusion) (from UniProt Q9FIM4 1-430)”, the binding entry was “binds weakly”.
With “N-Ven-RKD1 (BiFC fusion) (from UniProt Q9M9U9 1-269)”, the binding result is listed as “binds”.
“N-Ven-RKD3 (BiFC fusion) (from UniProt Q9FGD1 1-277)”: the binding entry is reported as “binds”.

The next assay concerns the target T2, RETINOBLASTOMA RELATED (RBR), LexA two-hybrid bait (Arabidopsis (accession Col-0)) (UniProt Q9LKZ3).
T2 sequence: T1 sequence
Put plainly: two-hybrid.
Consider “MULTI-SUPRESSOR-OF-IRA 1 (MSI1), two-hybrid prey (from UniProt O22467 1-424)”, for which the binding result is given as “binds”.
For the substance “MYB64, two-hybrid prey (from UniProt Q9FY60 1-423)”, the binding result is listed as “binds”.
Turning to “MYB119, two-hybrid prey (from UniProt Q9FIM4 1-430)”, the binding result is recorded as “binds”.
For the substance “RKD3 (RWP-RK domain-containing 3), two-hybrid prey (from UniProt Q9FGD1 1-277)”, the binding entry was “binds”.
